Results are given in words; binding and its absence hold for the method and conditions named. In cells and extracts the contact can be indirect. Binding calls can cover weak binding; strength is not graded here. Tags and fused reporters may be left off the sequences shown. One block for each binder: values may come before it.
Target: dCTCF C-terminal domain, GST-fused (Drosophila melanogaster)
Assay: pull-down

binding: binds
B1: CP190 M domain [245-606], 6xHis-thioredoxin-fused (domain or fragment, UniProt Q24478 245-606)
chain: KEFAEQQRMRKQIAAEYGDNDPEYDGGMLYDDVHAGDDDDDDMPPQPSTSKQQSPQGTQTQLEHGSTTIILKQDSPSQTPTIIVKDSSNAKLNHTKIIAEVLRQYPHIVKGHKNIKLKIMPNTPAAPTEKSAPATVKPPANQSSATTSPHKKLHVSFKADKSTPLITAQQKAASSQQKSGTSQTTGNQGTGANPPANTAAAQKRRIDSKTMHALIAQGAENTTGPWLCLRCGVNGRPISIPSYRGFRRHLINTHKETIDPALCEHCGWRSVNNRELHFHMYMEHQTKSLLYTFAECALCNQSYRTKGELEAHINEVHTDDNKQQCIYCNKVFEQELQLYRHMKSYHKEQALEDGIIDETDEE

binding: binds
B2: CP190 BTB domain [1-126], 6xHis-thioredoxin-fused (domain or fragment, UniProt Q24478 1-126)
chain: MGEVKSVKVDNWGVFFLQKLQNFFNKTDYCDLTLQFRDNSQLKVHRLVLSACTDYFNVLEQTCEIVDDALIMPNEFQADVVVPIVNFMYTGTLEFELKMYGKLLRTAKEMNMTVLLKLLEAHRRTM

From publication doi:10.1101/2021.05.31.446447
